Experimental findings from patent publication US20230212258A1 (MCMASTER UNIVERSITY, published 2023) are described below.

By UniProt entry, the sequences of proteins in these tests, tags left out. Where a name states a change or a piece, a line headed by the entry shows the natural chain unless it says otherwise.
UniProt P01732: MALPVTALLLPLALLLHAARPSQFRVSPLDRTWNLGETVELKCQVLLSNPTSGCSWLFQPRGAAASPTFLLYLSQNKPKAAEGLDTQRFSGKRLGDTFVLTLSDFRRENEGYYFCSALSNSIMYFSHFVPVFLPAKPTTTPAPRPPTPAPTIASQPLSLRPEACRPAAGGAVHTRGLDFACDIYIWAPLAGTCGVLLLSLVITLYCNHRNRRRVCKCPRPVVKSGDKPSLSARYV

No constants are given. Whether binding was seen depends on the method and setting. Some binding calls cover weakened binding; strength is not graded here.

Test [1] has as its target T1, Her2Fc (UniProt P04626 23-652, limits assumed).
T1 construct: It is printed both as Her2Fc and as FcHer2; also called FcHer2; FcHer2 antigen; not shown: Fc part
In words: flow cytometry, engineered T cells probed with FcHer2 (FIG. 9A).

The target of test [2] is T1, Her2Fc. In words: flow cytometry, transduced T cells incubated with Her2Fc (FIG. 2). On the procedure: T-cells had been incubated with Her2Fc, which later was detected via flow cytometry. The presented data was gated on CD8+ lymphocytes. The shown gates were chosen based on the untransduced control.

For “DARPin CAR (from UniProt P01732 138-182; P10747 153-220; P20963 52-164) (receptor)”, the binding entry with Her2Fc [1] and with Her2Fc [2] was “binds” throughout.
